# The list is a part of this screen's results and no random one: it is rich in T/C values a quarter to a half above the control, in often repeated tests (any T/C) and in doses without a T/C. Further doses and runs are listed elsewhere. T/C gives the treated animals as a percentage of the vehicle group. Some entries give survivors of the animals treated and no T/C: the source holds a T/C of zero for them, seemingly a mark for toxic or unscored doses. Some survivor counts are full or nearly so, which does not show that the dose was tolerated: the source hardly ever lists a survival T/C far under the control, and the zero likely stands for such cases as well. Counts of survivors are from the toxicity check (mostly the fifth day) where no day follows; animals may have died later. Schedule codes are those of the source, read here as Q, the interval in days (D) or hours (H), X, the number of doses. Some entries hold several experiments; the results are listed from low to high. Some schedules carry Z or #; the key to these is not given. For survival time, this PubChem deposit counts one and a half times the control or more as active, and values a quarter to a half above the control carry no call in these data; other NCI protocols may use other cut-offs. Counts like (3×) say how often a value occurs here. Some T/C values carry the count of animals alive at the toxicity check (mostly the fifth day); where none is given, no animal had died by that day.
# Tested on: L1210 leukemia ip in BDF1 mice, survival T/C
# Test: NCI In Vivo Anticancer Drug Screen. Data for tumor model L1210 Leukemia (intraperitoneal) in B6D2F1 (BDF1) mice
# Details: higher T/C = longer survival
structure (smiles),measurement,setting,value
N=C(N)SCc1c2ccccc2c(CSC(=N)N)c2ccccc12,survivor count,"T/C endpoint: mean survival time, dose: 160.0 mg/kg/injection, schedule: Q01DX006 (iv), vehicle: carboxymethylcellulose (CMC)",0 of 6
same,survivor count,"T/C endpoint: mean survival time, dose: 160.0 mg/kg/injection, schedule: Q01DX006 (iv), vehicle: saline",0 of 6
same,T/C,"T/C endpoint: mean survival time, dose: 160.0 mg/kg/injection, schedule: Q01DX Z (im), vehicle: carboxymethylcellulose (CMC)",127 % of control
same,survivor count,"T/C endpoint: mean survival time, dose: 160.0 mg/kg/injection, schedule: Q01DX Z (ip), vehicle: carboxymethylcellulose (CMC)",6 of 6
same,T/C,"T/C endpoint: mean survival time, dose: 160.0 mg/kg/injection, schedule: Q#A X Z (ip), vehicle: carboxymethylcellulose (CMC)",127 % of control [5 of 6 alive]
same,survivor count,"T/C endpoint: mean survival time, dose: 194.0 mg/kg/injection, schedule: Q## X008 (ip), vehicle: carboxymethylcellulose (CMC)",2 of 10
same,T/C,"T/C endpoint: mean survival time, dose: 200.0 mg/kg/injection, schedule: Q01DX001 (ip), vehicle: carboxymethylcellulose (CMC)","112, 123, 125, 140, 215 % of control"
same,T/C,"T/C endpoint: mean survival time, dose: 200.0 mg/kg/injection, schedule: Q01DX001 (ip), vehicle: saline",145 % of control
same,T/C,"T/C endpoint: mean survival time, dose: 200.0 mg/kg/injection, schedule: Q01DX009 (ip), vehicle: carboxymethylcellulose (CMC)",130 % of control
same,T/C,"T/C endpoint: mean survival time, dose: 200.0 mg/kg/injection, schedule: Q01DX015 (ip), vehicle: carboxymethylcellulose (CMC)",140 % of control
same,survivor count,"T/C endpoint: mean survival time, dose: 200.0 mg/kg/injection, schedule: Q01DX015 (ip), vehicle: clinical formulation",0 of 6
same,T/C,"T/C endpoint: mean survival time, dose: 200.0 mg/kg/injection, schedule: Q04DX005 (ip), vehicle: carboxymethylcellulose (CMC)",139 % of control
same,survivor count,"T/C endpoint: mean survival time, dose: 200.0 mg/kg/injection, schedule: Q06HX004 (ip), vehicle: carboxymethylcellulose (CMC)",8 of 10 and 10 of 10
same,survivor count,"T/C endpoint: mean survival time, dose: 200.0 mg/kg/injection, schedule: Q06HX004 (ip), vehicle: saline",10 of 10
same,survivor count,"T/C endpoint: mean survival time, dose: 200.0 mg/kg/injection, schedule: Q08DX002 (ip), vehicle: clinical formulation",0 of 6
same,T/C,"T/C endpoint: mean survival time, dose: 200.0 mg/kg/injection, schedule: Q08DX002 (ip), vehicle: saline, evaluated on day 30","103, 214, 238 % of control"
same,T/C,"T/C endpoint: mean survival time, dose: 200.0 mg/kg/injection, schedule: Q08DX002 (ip), vehicle: saline, run until all animals had died",189 % of control
same,T/C,"T/C endpoint: mean survival time, dose: 200.0 mg/kg/injection, schedule: Q12HX002 (ip), vehicle: carboxymethylcellulose (CMC)",128 % of control
same,T/C,"T/C endpoint: mean survival time, dose: 256.0 mg/kg/injection, schedule: Q## X003 (ip), vehicle: carboxymethylcellulose (CMC)",149 % of control
same,T/C,"T/C endpoint: mean survival time, dose: 280.0 mg/kg/injection, schedule: Q01DX001 (ip), vehicle: carboxymethylcellulose (CMC)",133 and 138 % of control
same,T/C,"T/C endpoint: mean survival time, dose: 280.0 mg/kg/injection, schedule: Q07DX003 (ip), vehicle: carboxymethylcellulose (CMC)",149 % of control
same,survivor count,"T/C endpoint: mean survival time, dose: 300.0 mg/kg/injection, schedule: Q08DX002 (ip), vehicle: clinical formulation",0 of 6
same,survivor count,"T/C endpoint: mean survival time, dose: 320.0 mg/kg/injection, schedule: Q01DX006 (iv), vehicle: carboxymethylcellulose (CMC)",0 of 6
same,survivor count,"T/C endpoint: mean survival time, dose: 320.0 mg/kg/injection, schedule: Q01DX006 (iv), vehicle: saline",0 of 6
same,T/C,"T/C endpoint: mean survival time, dose: 320.0 mg/kg/injection, schedule: Q01DX Z (im), vehicle: carboxymethylcellulose (CMC)",132 % of control
same,T/C,"T/C endpoint: mean survival time, dose: 400.0 mg/kg/injection, schedule: Q01DX001 (ip), vehicle: carboxymethylcellulose (CMC)","126 (2×), 128, 190 % of control"
same,T/C,"T/C endpoint: mean survival time, dose: 400.0 mg/kg/injection, schedule: Q01DX001 (ip), vehicle: saline",143 % of control
same,T/C,"T/C endpoint: mean survival time, dose: 400.0 mg/kg/injection, schedule: Q01DX Z (ip), vehicle: carboxymethylcellulose (CMC)",126 % of control
same,T/C,"T/C endpoint: mean survival time, dose: 400.0 mg/kg/injection, schedule: Q04DX003 (ip), vehicle: carboxymethylcellulose (CMC)",132 % of control
same,T/C,"T/C endpoint: mean survival time, dose: 400.0 mg/kg/injection, schedule: Q08DX003 (ip), vehicle: carboxymethylcellulose (CMC)",138 % of control
same,survivor count,"T/C endpoint: mean survival time, dose: 400.0 mg/kg/injection, schedule: Q#A X002 (ip), vehicle: saline",10 of 10
same,T/C,"T/C endpoint: mean survival time, dose: 560.0 mg/kg/injection, schedule: Q07DX003 (ip), vehicle: carboxymethylcellulose (CMC)",144 % of control
same,survivor count,"T/C endpoint: mean survival time, dose: 640.0 mg/kg/injection, schedule: Q01DX006 (iv), vehicle: saline",0 of 6
same,survivor count,"T/C endpoint: mean survival time, dose: 640.0 mg/kg/injection, schedule: Q#A X Z (ip), vehicle: carboxymethylcellulose (CMC)",5 of 6
same,T/C,"T/C endpoint: mean survival time, dose: 800.0 mg/kg/injection, schedule: Q01DX001 (ip), vehicle: carboxymethylcellulose (CMC)","91, 128, 138, 162 % of control"
same,survivor count,"T/C endpoint: mean survival time, dose: 800.0 mg/kg/injection, schedule: Q01DX001 (ip), vehicle: saline",10 of 10
same,survivor count,"T/C endpoint: mean survival time, dose: 800.0 mg/kg/injection, schedule: Q07DX Z (ip), vehicle: saline",3 of 6
same,survivor count,"T/C endpoint: mean survival time, dose: 800.0 mg/kg/injection, schedule: Q08DX002 (ip), vehicle: saline",9 of 10
same,survivor count,"T/C endpoint: mean survival time, dose: 1600.0 mg/kg/injection, schedule: Q07DX Z (ip), vehicle: saline",2 of 6
same,T/C,"T/C endpoint: median survival time, dose: 62.5 mg/kg/injection, schedule: Q01DX001 (ip), vehicle: steroid suspending solution",144 % of control
same,T/C,"T/C endpoint: median survival time, dose: 100.0 mg/kg/injection, schedule: Q01DX009 (sc), vehicle: steroid suspending solution",127 % of control
same,survivor count,"T/C endpoint: median survival time, dose: 200.0 mg/kg/injection, schedule: Q01DX009 (ip), vehicle: steroid suspending solution",8 of 8
same,survivor count,"T/C endpoint: median survival time, dose: 200.0 mg/kg/injection, schedule: Q04DX003 (ip), vehicle: steroid suspending solution",8 of 8
same,T/C,"T/C endpoint: median survival time, dose: 250.0 mg/kg/injection, schedule: Q01DX001 (ip), vehicle: steroid suspending solution",127 % of control
same,survivor count,"T/C endpoint: median survival time, dose: 400.0 mg/kg/injection, schedule: Q04DX003 (ip), vehicle: steroid suspending solution",8 of 8
same,survivor count,"T/C endpoint: median survival time, dose: 500.0 mg/kg/injection, schedule: Q01DX001 (ip), vehicle: steroid suspending solution",6 of 8
same,survivor count,"T/C endpoint: median survival time, dose: 1000.0 mg/kg/injection, schedule: Q01DX001 (ip), vehicle: steroid suspending solution",1 of 8
same,survivor count,"T/C endpoint: median survival time, dose: 2000.0 mg/kg/injection, schedule: Q01DX001 (sc), vehicle: steroid suspending solution",1 of 8
